Measured data: PubChem BioAssay AID1671195 (Yale University, 2021)
Test: 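Regulators of LDL receptor activity judged by labelled LDL uptake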 (primary screen). Cell system: human Huh7 hepatoma cells. Reagent: siRNA pool against human genes, 18 nM. Timing: about 2 to 2.5 days of knockdown, then 8 h LDL uptake. Conditions: DiI-labelled LDL at 30 µg/ml for 8 h, in lipoprotein-deficient serum medium. Measurement: 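Per-cell DiI-LDL intensity by automated imaging; well means scaled to the plate median and given as a robust z-score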. Direction: robust z-score: higher = more LDL uptake after knockdown. Active means: 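a gene counts as active if at least two replicate z-scores exceed ±2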.
Shown is an unselected part of about 22,000 deposited reagents. About 1,510 of all reagents (6.9%) were called active. 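Active includes knockdowns raising or lowering LDL uptake; positive z-scores mean more uptake, negative mean less.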

| gene | robust z-score, replicate 1 | robust z-score, replicate 2 | robust z-score, replicate 3 | Call |
| --- | --- | --- | --- | --- |
| LPCAT4 (GeneID 254531) | -1.32 | -1 | -0.707 | inactive |
| ALX1 (GeneID 8092) | -1.24 | -1.82 | -1.52 | inactive |
| AHI1 (GeneID 54806) | 0.36 | 2.74 | 1.74 | inactive |
| DOK2 (GeneID 9046) | 2.8 | -0.78 | 0.173 | inactive |
| TAOK3 (GeneID 51347) | 1.54 | 0.298 | 1.08 | inactive |
| CDK2 (GeneID 1017) | -0.537 | -0.228 | -0.296 | inactive |
| LOC441839 (retired record) (GeneID 441839) | -1.35 | -1.31 | -1.25 | inactive |
| CLIC1 (GeneID 1192) | -1.44 | -1.98 | -0.88 | inactive |
| DUSP12 (GeneID 11266) | 0.653 | 0.728 | 0.434 | inactive |
| OR12D2 (GeneID 26529) | -0.0406 | 0.14 | 0.966 | inactive |
| CASP10 (GeneID 843) | 0.763 | 1.1 | 1.51 | inactive |
| SRD5A3 (GeneID 79644) | 2.12 | 1.49 | 1.29 | inactive |
| ATP7B (GeneID 540) | 0.416 | 0.925 | 0.932 | inactive |
| CD320 (GeneID 51293) | -0.136 | -0.116 | 0.122 | inactive |
| PCDHA8 (GeneID 56140) | 1.85 | 2.07 | 1.62 | inactive |
| PID1 (GeneID 55022) | 1.21 | 1.83 | 1.55 | inactive |
| CFAP107 (GeneID 93190) | -0.297 | -0.817 | -1 | inactive |
| UPK1B (GeneID 7348) | 0.726 | 0.0961 | -0.622 | inactive |
| LOC390908 (retired record) (GeneID 390908) | -0.705 | -0.077 | -0.387 | inactive |
| LOC442226 (retired record) (GeneID 442226) | -0.855 | -1.51 | -0.77 | inactive |
| ARAP3 (GeneID 64411) | -1.65 | -1.76 | -2.05 | inactive |
| LIPM (GeneID 340654) | -0.293 | -0.308 | 0.181 | inactive |
| LINC02693 (GeneID 339263) | 1.1 | 1.08 | 1.23 | inactive |
| AKNAD1 (GeneID 254268) | 0.081 | 0.0937 | 0.698 | inactive |
| MCM6 (GeneID 4175) | -0.374 | 0.493 | -0.539 | inactive |
| ZNF439 (GeneID 90594) | -0.0986 | 0.1 | 0.0814 | inactive |
| ADO (GeneID 84890) | 0.194 | -0.103 | 0.0438 | inactive |
| CIP2A (GeneID 57650) | 1.17 | 0.131 | -0.761 | inactive |
| SIAH1P1 (GeneID 340571) | -1.16 | 0.324 | 0.00349 | inactive |
| LOC401034 (retired record) (GeneID 401034) | 0.0612 | -0.318 | -0.241 | inactive |
| NDUFAB1 (GeneID 4706) | 0.372 | -0.191 | 0.27 | inactive |
| LOC441819 (retired record) (GeneID 441819) | -1.44 | -1.46 | -1.84 | inactive |
| GNAL (GeneID 2774) | 0.718 | 0.647 | -0.913 | inactive |
| PRAMEF3 (retired record) (GeneID 401940) | 0.272 | 0.119 | 0.535 | inactive |
| SLC7A13 (GeneID 157724) | -0.671 | -0.757 | -0.141 | inactive |
| GSTA4 (GeneID 2941) | -0.491 | 1.63 | -0.295 | inactive |
| ID4 (GeneID 3400) | 1.29 | 1.13 | 0.76 | inactive |
| MFAP4 (GeneID 4239) | 0.874 | 0.762 | 0.575 | inactive |
| BDH2 (GeneID 56898) | -0.261 | -0.252 | -0.182 | inactive |
| ZNF185 (GeneID 7739) | -0.588 | -2.31 | -1.44 | inactive |
| NUP62CL (GeneID 54830) | 0.411 | -0.0863 | 1.49 | inactive |
| RPL23AP82 (GeneID 284942) | 0.275 | 0.343 | 0.0309 | inactive |
| SPIRE1 (GeneID 56907) | -1.06 | -1.13 | 0.267 | inactive |
| OR51I2 (GeneID 390064) | -0.602 | -0.251 | -0.88 | inactive |
| GORAB (GeneID 92344) | -0.231 | -1.04 | -1.08 | inactive |
| NF1 (GeneID 4763) | -0.971 | -0.983 | -1.48 | inactive |
